The results in this text go back to article PMC12040169 (PLOS Biology, 2025).

SMILES strings stand for the structures. The list shows a part of the results.

The test deals with T1, CTL2-GFP (C. trachomatis L2/434/Bu, GFP-expressing).
T1 construct: L2/434/Bu, GFP-expressing
Details: species or system HeLa; Intracellular C. trachomatis growth in HeLa cells, bulk GFP fluorescence relative to DMSO. Conditions: bulk GFP, single well; 28.5 h, 10 µM; inhibitor.
As for `Cc1cccc(C)c1NC(=O)Cn1c(SCC(N)=O)nc2ccccc21` [CBK266684], the “% of control remaining” value amounted to 121.239%.
Under `CCNc1nc(-c2ccc3c(c2)CCCN3S(C)(=O)=O)cs1` [CBK305861] stands 100.123%; under `CCN(CC)CCn1c(=N)n(CC(=O)c2ccc(Cl)c(Cl)c2)c2ccccc21` [CBK263455B], 100%; under `O=C(Cc1ccccc1)N/N=C/C1CC2CC1CC2C(F)(F)F` (stereo not shown) [CBK021488], 105.684%.
Under `COc1ccc(Nc2ccc(-c3ccc(C(=O)O)cc3)cn2)cc1` [CBK037654] stands 123.346%; under `CCOc1ccc(-c2cncc(NCCc3c[nH]c4ccccc34)n2)cc1` [CBK065876], 190.771%; under `Fc1ccc2[nH]c3c(c2c1)CCOC31CCN(C/C=C\c2ccccc2)CC1` [CBK040141], 41.3987%.
As to `CCC(Oc1ccccc1)C(=O)Nc1sc2c(c1C#N)CCCC2` (stereo not shown) [CBK262091], the “% of control remaining” value came to 88.002%.
Under `CCN1CC2(CCN(CCCn3c(=O)[nH]c4ccccc43)CC2)c2ccccc21` [CBK131483] stands 126.595%.
As for `Cc1csc(Nc2cccc(C3CCCN3C(=O)CCOc3ccccc3C)n2)n1` (stereo not shown) [CBK285977], the figure is 102.862%; as for `CCC(C)NC(=O)c1ccc2nccnc2c1` (stereo not shown) [CBK268921], 109.979%.
`Cn1nc(C(Cc2ccccc2)NC(=O)c2ccco2)c2cccnc21` (stereo not shown) [CBK285223]: the “% of control remaining” value was found to be 153.305%.
As for `CCCNc1cncc(-c2ccc(OCC)cc2)n1` [CBK065845], the “% of control remaining” value came out at 77.9008%.
As for `COc1ccc(C)cc1S(=O)(=O)N(CC(=O)O)c1ccc(Cl)c(Cl)c1` [CBK269095], the figure is 108.216%; as for `COc1ccc(CCC(=O)Nc2cc(N3CCNCC3)ncn2)cc1` [CBK004231T], 138.785%; as for `Cc1cnc(CNC(=O)N2CCN(c3ccccc3)CC2)cn1` [CBK155174], 96.4095%.
As for `CC(C)(C)OC(=O)N1CCCN(Cc2nnc(-c3ccco3)o2)CC1` [CBK305271], the figure is 123.765%; as for `COc1ccc(N2CCN(C(=O)CCC(F)(F)F)CC2)cc1` [CBK091419], 102.315%.
Under `c1ccc2cc(-c3cc(Nc4ccc5[nH]ccc5c4)ncn3)ccc2c1` [CBK090853] stands 160.166%.
As to `CN(C)C(C)(C)COc1ncccc1OCCO` [CBK042184], the “% of control remaining” value is reported as 112.978%.
As for `COCC(=O)N1CCC(Cc2ccc(-c3cccc(C)c3)cc2)(C(=O)NC(C)C)CC1` [CBK285759], the figure is 134.694%; as for `O=C1CCCCC1SCn1nnc2ccccc21` (stereo not shown) [CBK011412], 110.627%.
`C/C(=N\O)c1ccc(S(N)(=O)=O)cc1` [CBK007871]: the “% of control remaining” value is 118.036%.
As to `Cc1ccc(N2C(=O)CSC23C(=O)Nc2ccc(Br)cc23)cc1` (stereo not shown) [CBK093453], the “% of control remaining” value is reported as 114.213%.
`COC(=O)c1cc(Cl)c(NC(=S)NC(=O)C(C)(C)C)cc1OC` [CBK020937]: the “% of control remaining” value is on record as 118.014%.
As for `CC(C)(CN)CN(Cc1c[nH]c(-c2ccccc2)n1)C(=O)Nc1ccc(C(C)(C)C)cc1` [CBK002462C], the figure is 35.016%.
Under `CCC(CC)c1cc([C@H]2CN3CC[C@H]2C[C@@H]3CO)nc(-c2ccncc2)n1` [CBK289118] stands 145.683%.
Under `CC(C)NC(=O)Nc1ccccc1-c1ncn(C)n1` [CBK020922] stands 110.928%.
With `Cc1ccc(S(=O)(=O)N(CC(=O)Nc2cccnc2)c2cccc(Br)c2)cc1` [CBK264094], the “% of control remaining” value worked out at 110.087%.
Under `C[C@H](Nc1nc(-c2cccc(C(N)=O)c2)cnc1N)c1ccccc1` [CBK063715] stands 131.662%.
On to `COc1ccc2c3c([nH]c2c1)C(C)N(CCC(=O)NN)CC3` (stereo not shown) [CBK261726], for which the “% of control remaining” value is reported as 110.668%.
Under `CC(C)(C)OC(=O)N1CCN(CCCOC2(C)SC(NC3CC4CCC3C4)=NC2=O)CC1` (stereo not shown) [CBK115612] stands 98.1477%; under `CN1CCN(c2nc3c(N)ncn(CC(O)CO)c-3n2)CC1` (stereo not shown) [CBK262571], 104.242%.
For `CN1CC(C(=O)N2C3CCC2CC(c2ccc(F)cc2)C3)CC1=O` (stereo not shown) [CBK283769], the “% of control remaining” value amounted to 127.867%.
For the compound `Nc1ncc(-c2occc2C=O)nc1-c1ccc(F)c(Cl)c1` [CBK064005], the “% of control remaining” value stood at 119.627%.
As for `COc1ccc2c(c1Br)C=C(n1ccnc1)CC2` [CBK017808], the figure is 82.9326%.
As for `COCC(=O)N1CCc2sccc2C1c1ccc(NCc2ccc(F)cc2)cc1` (stereo not shown) [CBK286445], the figure is 126.633%; as for `CSc1ccc(CNCCc2c[nH]c3ccccc23)cc1` [CBK262126], 100%.
As for `CCCNc1nccnc1-c1cccc(CO)c1` [CBK088897], the figure is 153.039%.
In the case of `CN1CCCN(c2cnn(Cc3ccc(Cl)s3)c(=O)c2)CC1` [CBK307123], the “% of control remaining” value was found to be 89.2983%.
Under `O=C(O)c1ccc(/C=N/Nc2cccc3cccnc23)cc1` [CBK262372] stands 123.357%.
As for `Nc1ccc(CCNC(=O)c2cnc(-c3ccc(Cl)cc3)c(-c3ccco3)c2)cc1` [CBK036686], the figure is 105.763%; as for `OCCNc1nc(O)cc(C(F)(F)F)n1` [CBK001804], 110.086%; as for `Cc1ccc2c(c1)C(=O)NCC1(CCN(Cc3ccccc3)CC1)O2` [CBK285048], 127.69%.
Under `Cc1ccc(CN(Cc2cncn2C)C2CC(C)(C)NC(C)(C)C2)o1` [CBK283192] stands 118.945%.
Turning to `O=C(c1ccccn1)N1CCCC(c2cc3ccccc3cn2)C1` (stereo not shown) [CBK282832], the “% of control remaining” value was found to be 126.031%.
As for `Cc1nnnn1-c1cc(NC(=O)NCC2CCCO2)ccc1F` (stereo not shown) [CBK305528], the figure is 149.315%; as for `c1cnn(CCCNc2nc3nonc3nc2N2CCCCCC2)c1` [CBK307318], 108.523%.
Under `O=C1CCC(=O)N1CCOc1nccnc1OC1CCN(Cc2ccc(Cl)c(Cl)c2)CC1` [CBK084335] stands 110.036%.
As to `CN1CCN(C(c2ccc(O)cc2)c2nnnn2Cc2ccccc2)CC1` (stereo not shown) [CBK084719], the “% of control remaining” value is 115.064%.
With `Clc1ccc(COc2nccnc2OCC2CCCO2)cc1Cl` (stereo not shown) [CBK161587], the “% of control remaining” value was found to be 119.632%.
As for `CN(C)S(=O)(=O)c1ccc(Cl)c(C(=O)Nc2cccc(O)c2)c1` [CBK265723], the figure is 84.284%.
